Test results taken from PubChem BioAssay AID694 (Emory University Molecular Libraries Screening Center, 2007).
Several values for one entry are separate records, joined by “and”; a condition that tells them apart may be missing. Equal entries are not always repeated. The list shows a part of the results. These are further read-outs of the screen, such as a control signal, another cell line or another target. No call is given for them.

Sequences of proteins named here, by UniProt entry; tags and fusion partners are left off.
UniProt P03372, whole entry, looked up: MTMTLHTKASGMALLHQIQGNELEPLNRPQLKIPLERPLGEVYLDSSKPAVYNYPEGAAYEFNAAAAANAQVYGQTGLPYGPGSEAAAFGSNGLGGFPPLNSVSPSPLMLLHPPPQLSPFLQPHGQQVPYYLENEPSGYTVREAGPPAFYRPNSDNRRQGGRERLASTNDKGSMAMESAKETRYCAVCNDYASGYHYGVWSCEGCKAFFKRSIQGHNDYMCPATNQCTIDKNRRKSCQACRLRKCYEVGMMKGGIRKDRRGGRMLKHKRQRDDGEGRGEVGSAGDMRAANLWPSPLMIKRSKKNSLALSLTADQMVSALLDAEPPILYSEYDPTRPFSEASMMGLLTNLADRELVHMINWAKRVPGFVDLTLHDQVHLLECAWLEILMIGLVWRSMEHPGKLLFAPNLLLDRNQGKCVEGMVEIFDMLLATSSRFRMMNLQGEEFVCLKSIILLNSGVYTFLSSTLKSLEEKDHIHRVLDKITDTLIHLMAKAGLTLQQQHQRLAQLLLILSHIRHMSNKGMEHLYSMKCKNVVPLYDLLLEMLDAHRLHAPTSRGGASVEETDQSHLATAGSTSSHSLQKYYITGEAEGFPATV

target: Estrogen receptor (Homo sapiens) (UniProt P03372); assay: ERα coactivator peptide binding inhibitors, primary screen, biochemical, LOPAC library, TR-FRET (AID 694); settings: TR-FRET ERalpha-coactivator peptide binding, at 15 µM, stronger effect = higher value;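 further: receptor was agonist-bound with estradiol present during the assay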

| Compound | inhibition |
| --- | --- |
| COc1ccc2c(c1)[C@@]13CCCC[C@H]1[C@@H](C2)NCC3 | 1.72% |
| CC(C)[C@@]1(NC(=O)[C@@H]2C=C3c4cccc5[nH]cc(c45)C[C@H]3N(C)C2)O[C@@]2(O)[C@@H]3CCCN3C(=O)[C@H](Cc3ccccc3)N2C1=O | 4.96% |
| C[C@@H]1O[C@@H](O[C@H]2C[C@@H](O)[C@]3(CO)[C@@H]4C(CC[C@]3(O)C2)[C@@]2(O)CC[C@H](C3COC(=O)C3)[C@@]2(C)C[C@H]4O)[C@H](O)[C@H](O)[C@H]1O (some centres not stated) | 6.85% |
| C/C=C(/C)C(=O)O[C@H]1C(C)=C2[C@H]([C@@H]1OC(=O)CCCCCCC)[C@@](C)(OC(C)=O)C[C@H](OC(=O)CCC)[C@@]1(O)[C@H]2OC(=O)[C@@]1(C)O | 5.75% |
| CCCN(CCC)[C@H]1CCc2c(F)ccc(O)c2C1 | 6.93% |
| CCCC[N+]1(C)C2CC(OC(=O)[C@H](CO)c3ccccc3)CC1C1OC12 (some centres not stated) | 7.8% |
| c1ccc2c(c1)OCC(C1=NCCN1)O2 (configuration not stated) | 4.53% |
| O=C(O)c1nn(Cc2ccc(Cl)cc2Cl)c2ccccc12 | 6.7% |
| CC(C)(C)c1cc(C=C(C#N)C#N)cc(C(C)(C)C)c1O | 0.27% |
| NC(N)=Nc1ccc2[nH]c3c(c2c1)C[C@@]1(O)[C@H]2Cc4ccc(O)c5c4[C@@]1(CCN2CC1CC1)[C@H]3O5 | 5.08% |
| CCOC(=O)c1ncn2c1[C@@H]1CCCN1C(=O)c1cc(OC)ccc1-2 | -1.26% |
| CCC1(C2=NCCN2)Cc2ccccc2O1 (configuration not stated) | 2.56% |
| NC(CCP(=O)(O)O)C(=O)O (configuration not stated) | -8.63% |
| COc1ccc2c(c1O)-c1cccc3c1[C@@H](C2)N(C)CC3 | -0.06% |
| C[N+]1(C)CCc2cc3c(cc2[C@H]1[C@@H]1OC(=O)c2c1ccc1c2OCO1)OCO3 | -4.51% |
| O=c1[nH]oc2c1CCNC2 | 0.3% |
| COc1cc(C(O)CN)ccc1O (configuration not stated) | 1.94% |
| CC(C)Oc1cccnc1N(C)C1CCN(Cc2ccccc2)CC1 | 5.57% |
| COC[C@H]1OC(=O)c2coc3c2[C@@]1(C)C1=C(C3=O)C2CCC(=O)[C@@]2(C)C[C@H]1OC(C)=O (some centres not stated) | 1.52% |
| O=C(CCCN1CCC2(CC1)C(=O)NCN2c1ccccc1)c1ccc(F)cc1 | 4.27% |
| C=CCN1CC[C@]23c4c5ccc(O)c4O[C@@H]2/C(=N/N=C2\CC[C@@]4(O)C6Cc7ccc(O)c8c7[C@@]4(CCN6CC=C)[C@@H]2O8)CC[C@@]3(O)C1C5 | 0.72% |
| CN1C2CCC1CC(OC(c1ccccc1)c1ccc(Cl)cc1)C2 (configuration not stated) | -4.18% |

| Compound | inhibition |
| --- | --- |
| CCCn1c(=O)c2[nH]c(C3CCCC3)nc2n(CCCOC(=O)c2ccc(S(=O)(=O)F)cc2)c1=O | -5.9% |
| CCCCCCC(C)(C)c1ccc([C@@H]2C[C@H](O)CC[C@H]2CCCO)c(O)c1 | 0% |
| COc1cc(CC(C)N)c(OC)cc1I (configuration not stated) | 7.38% |
| Cc1sc2ccccc2c1CC1=NCCN1 | -1.03% |
| C[N+](C)(C)CCOC(=O)CBr | -3.78% |
| CCCN(CCC)C(=O)Cc1c(-c2ccc(Cl)cc2)nc2c(Cl)cc(Cl)cn12 | 2.19% |
| CCCN(CCC)[C@@H]1CCc2c(F)ccc(O)c2C1 | 5.68% |
| NNCc1cccc(O)c1 | -3.13% |
| NC(CP(=O)(O)O)C(=O)O (configuration not stated) | -7.11% |
| CN1CCc2cc(O)cc3c2[C@H]1Cc1ccc(O)c(O)c1-3 | 13.8% |
| C[Se]C[C@H](N)C(=O)O | 0.64% |
| CCCN1CCC[C@@H](c2cccc(C#N)c2)C1 | -1.43% |
| COC(=O)N1CCN(C(=O)Cc2ccc(Cl)c(Cl)c2)C(CN2CCCC2)C1 (configuration not stated) | 0.99% |
| NCC#Cc1ccccc1 | -1.26% |
| COc1ccc2[nH]cc(CCN(C)C)c2c1 | -5.83% |
| C[N+]1(C)C2CC(OC(=O)[C@H](CO)c3ccccc3)CC1C1OC12 (some centres not stated) | -3.05% and 2.99% |
| CC(C)NC(C)Cc1ccc(I)cc1 (configuration not stated) | 15.3% |
| O=c1c2ccccc2[se]n1-c1ccccc1 | 3.15% |
| CCCN(CCC)C1Cc2cc(OC)c(OC)cc2C1 | -0.45% |
| C[N+]1(C)C2CCC1CC(OC(=O)C(CO)c1ccccc1)C2 (configuration not stated) | -3.36% and -5.87% |
| S=C=Nc1cccc(C2(N3CCCCC3)CCCCC2)c1 | 1.91% |
| CC12NC(Cc3ccccc31)c1ccccc12 (configuration not stated) | -2.5% |

| Compound | inhibition |
| --- | --- |
| CN[C@@H](C)[C@H](O)c1ccccc1 | 4.61% |
| CN1CCc2cccc(Cl)c2CC1 | -4.25% |
| NC(CCCCCP(=O)(O)O)C(=O)O (configuration not stated) | -6.11% |
| NC(=O)c1cc(N2CC2)c([N+](=O)[O-])cc1[N+](=O)[O-] | -4.25% |
| CP(=O)(O)C1=CCNCC1 | 3.24% |
| C[C@@H]1O[C@H](C[N+](C)(C)C)C[C@H]1O | 2.5% |
| N#CC(C#N)=Cc1ccc(O)c(O)c1 | 16% |
| COc1ccc2[nH]c3c(c2c1)CCNC3 | -6.99% |
| NC(=O)CI | -0.5% |
| CCN(CCCl)Cc1ccccc1Br | -3.72% |
| CCN(CC)C(=O)N[C@@H]1C=C2c3cccc4[nH]cc(c34)C[C@H]2N(C)C1 | 3.2% |
| CNC(=O)OCC[N+](C)(C)C | 4.41% |
| CC(N)C(=O)OC(C)(C)Cc1ccc(Cl)cc1 (configuration not stated) | -1.43% |
| Oc1ccc2c3c1O[C@H]1c4oc5ccccc5c4C[C@@]4(O)C(C2)N(CC2CC2)CCC314 (some centres not stated) | 1.58% |
| CP(=O)(O)CCCN | -7.67% |
| C#CCOC(=O)C1=CCCN(C)C1 | -4.44% |
| O=C(Cc1ccc(Cl)c(Cl)c1)N1CCCCC1CN1CCCC1 (configuration not stated) | 2.73% |
| CNCC(O)c1ccc(O)cc1 (configuration not stated) | 8.11% |
| CCCn1c(C)c(C(=O)c2ccc3ccccc3c2)c2ccccc21 | -0.17% |
| O=C(OC1CCN(CCCl)CC1)C(c1ccccc1)c1ccccc1 | -6.69% |
| c1ccc(CCCN2CCN(CCOC(c3ccccc3)c3ccccc3)CC2)cc1 | 2.14% |
| c1ccc(C2CC2)c(OCC2=NCCN2)c1 | 0.43% |

Quoted from the listing.
CCCCCCC(C)(C)c1ccc([C@@H]2C[C@H](O)CC[C@H]2CCCO)c(O)c1 – inhibition: 0%
CN1CCc2cccc(Cl)c2CC1 – inhibition: -4.25%
C[N+]1(C)CCc2cc3c(cc2[C@H]1[C@@H]1OC(=O)c2c1ccc1c2OCO1)OCO3 – inhibition: -4.51%
NC(N)=Nc1ccc2[nH]c3c(c2c1)C[C@@]1(O)[C@H]2Cc4ccc(O)c5c4[C@@]1(CCN2CC1CC1)[C@H]3O5 – inhibition: 5.08%
NCC#Cc1ccccc1 – inhibition: -1.26%

More compounds:

| Compound | inhibition |
| --- | --- |
| NCC(CP(=O)(O)O)c1ccc(Cl)cc1 (configuration not stated) | 1.97% |
| N#CC(C#N)=Cc1ccc([N+](=O)[O-])c(O)c1 | 10.5% |
| O=S1(=O)N(CCN2CC=C(c3c[nH]c4cc(F)ccc34)CC2)c2cccc3c2N1CCC3 | -1.49% |
| CCn1cnc2c(Nc3cccc(Cl)c3)nc(N[C@@H]3CCCC[C@@H]3N)nc21 | 1.14% |
| CN1CCN(c2ccc3ccccc3n2)CC1 | 2.37% |
| CCCCCCCCC(=O)NCc1ccc(O)c(OC)c1 | -5.85% |
| NCCc1c[nH]c2ccc(C(N)=O)cc12 | -0.7% |
| Nc1ccc(CCN2CCN(c3cccc(C(F)(F)F)c3)CC2)cc1 | -7.56% |
| CC(=O)NCCc1c[nH]c2ccccc12 | 2.72% |
| NC(C(=O)O)c1cc(=O)[nH]o1 (configuration not stated) | 1.08% |
| O=c1[nH]c2ccccc2n1C1CCN(CCCC(c2ccc(F)cc2)c2ccc(F)cc2)CC1 | 3.71% |
| CCCN1CC[C@@H]2c3cc(O)ccc3CC[C@@H]21 | 4.38% and -0.24% |
| CC(N)c1cccc(Cl)c1Cl (configuration not stated) | -1.52% |
| C=CCN1CCC2(C)c3cc(O)ccc3CC1[C@@H]2C (some centres not stated) | -7.99% |
| CCc1c(C(=O)OC)ncc2[nH]c3cc(OC)c(OC)cc3c12 | 2.41% |
| CCCCC/C=C\C/C=C\C/C=C\C/C=C\CCCC(=O)NCC(=O)O | 19.1% |
| CCCC(C)(COC(N)=O)COC(=O)NC(C)C (configuration not stated) | 0.13% |
| Oc1ccc2c3c1O[C@H]1[C@@H](O)CC[C@@]4(O)C(C2)N(CC2CCC2)CCC314 (some centres not stated) | 1.6% |
| C/C(O)=C(\C#N)C(=O)Nc1cc(Br)ccc1Br | -2.99% |
| COc1ccc2c3c1O[C@H]1C(=O)CC[C@@]4(O)C(C2)N(CC2CC2)CCC314 (some centres not stated) | -5.95% |
| NC1CCc2cc(O)c(O)cc2C1 (configuration not stated) | -0.12% |
| C[C@]12CCC(=O)C=C1CC[C@@H]1[C@@H]2CC[C@]2(C)C(=O)CC[C@@H]12 | -8.15% |

| Compound | inhibition |
| --- | --- |
| C[C@H]1OC[C@@H](C[N+](C)(C)C)O1 | -0.65% |
| CC(O)C(C)OC(=O)[C@@H]1C[C@@H]2c3cccc4c3c(cn4C(C)C)C[C@H]2N(C)C1 (some centres not stated) | 4.46% |
| C[N+]1(C)C2CCC1CC(OC(=O)c1c[nH]c3ccccc13)C2 (configuration not stated) | 9.66% |
| c1ccc2sc(C3(N4CCCCC4)CCCCC3)cc2c1 | 42.9% |
| C[C@]12CCC3C(CC[C@H]4C[C@H](O)CC[C@]34C)C1CC[C@@H]2C(=O)CO (some centres not stated) | -2.53% |
| COc1ccc(OC)c(C(O)C(C)N)c1 (configuration not stated) | 9.06% |
| CC(C)CC(NP(=O)(O)O[C@@H]1O[C@@H](C)[C@H](O)[C@@H](O)[C@H]1O)C(=O)NC(Cc1c[nH]c2ccccc12)C(=O)O (some centres not stated) | -0.59% |
| COc1ccc(CCN)cc1O | -1.14% |
| CCCN1CCO[C@@H]2c3cc(O)ccc3OC[C@H]21 | 3.92% and 3.32% |
| CC(=O)OCC1=C(C(=O)[O-])N2C(=O)[C@@H](NC(=O)CCC[C@@H](N)C(=O)[O-])[C@H]2SC1.[Zn+2] | 1.01% |
| O=P1(N(CCCl)CCCl)NCCCO1 (configuration not stated) | -4.84% |
| O=C(O)Cc1cnc[nH]1 | 2.8% |
| CN1C2CCC1CC(OC(=O)c1cc(Cl)cc(Cl)c1)C2 (configuration not stated) | 1.51% |
| O=P(O)(O)C(Cl)(Cl)P(=O)(O)O | 2.25% |
| CC1=NN=C(c2ccc(N)cc2)c2cc3c(cc2C1)OCO3 | 2.48% |
| O=C(O)c1cc[c]([Hg][Cl])cc1 | 5.03% |
| C[C@]12CC[C@H]3[C@@H](CCC4C[C@H](O)CC[C@@]43C)[C@@H]1CC[C@@H]2O (some centres not stated) | -6.39% |
| CC(=O)[C@H]1CC[C@H]2[C@@H]3CC[C@H]4C[C@H](O)CC[C@]4(C)[C@H]3C(=O)C[C@]12C | -3.44% |
| CC(=O)c1c(O)c(C)c(O)c(Cc2c(O)c3c(c(C(=O)/C=C/c4ccccc4)c2O)OC(C)(C)C=C3)c1O | 13.2% |
